Values quoted from earlier work as cited in US11804282B1, “Systems and methods for drug clustering” (nference, Inc., priority 2018, dated 2023).
At least one structure is not confirmed: it was looked up by name or label, or the drawing left a doubt.

Tested on: distinct purified proteins
Conditions: proteome-wide screening data (FIG. 3 inset)

Cc1nc(Nc2ncc(C(=O)Nc3c(C)cccc3Cl)s2)cc(N2CCN(CCO)CC2)n1 [dasatinib]
number of distinct purified proteins bound: over 160 distinct purified proteins
